Test results from PubChem BioAssay AID1671190 (National Center for Advancing Translational Sciences (NCATS), 2021).
Where “and” joins values, the source holds several entries; their conditions need not be identical. Equal values may be shown once. About 6,100 (1.1%) of roughly 580,000 compounds were called active. Inconclusive means that the source gave no clear call. Such entries were picked first, then a sample of the others. Calls come from the whole dose curve; as a rule, active = well fitted inhibition curve with a large enough effect; inconclusive = small, poorly fitted or top-dose-only effect, or another doubt; inactive = no such curve, though single readings can be large or run the other way. A potency beside an inconclusive call is a rough fit, not a confirmed value.

By UniProt entry, the sequences of proteins in these tests, tags left out. Where a name states a change or a piece, a line headed by the entry shows the natural chain unless it says otherwise.
UniProt P18054: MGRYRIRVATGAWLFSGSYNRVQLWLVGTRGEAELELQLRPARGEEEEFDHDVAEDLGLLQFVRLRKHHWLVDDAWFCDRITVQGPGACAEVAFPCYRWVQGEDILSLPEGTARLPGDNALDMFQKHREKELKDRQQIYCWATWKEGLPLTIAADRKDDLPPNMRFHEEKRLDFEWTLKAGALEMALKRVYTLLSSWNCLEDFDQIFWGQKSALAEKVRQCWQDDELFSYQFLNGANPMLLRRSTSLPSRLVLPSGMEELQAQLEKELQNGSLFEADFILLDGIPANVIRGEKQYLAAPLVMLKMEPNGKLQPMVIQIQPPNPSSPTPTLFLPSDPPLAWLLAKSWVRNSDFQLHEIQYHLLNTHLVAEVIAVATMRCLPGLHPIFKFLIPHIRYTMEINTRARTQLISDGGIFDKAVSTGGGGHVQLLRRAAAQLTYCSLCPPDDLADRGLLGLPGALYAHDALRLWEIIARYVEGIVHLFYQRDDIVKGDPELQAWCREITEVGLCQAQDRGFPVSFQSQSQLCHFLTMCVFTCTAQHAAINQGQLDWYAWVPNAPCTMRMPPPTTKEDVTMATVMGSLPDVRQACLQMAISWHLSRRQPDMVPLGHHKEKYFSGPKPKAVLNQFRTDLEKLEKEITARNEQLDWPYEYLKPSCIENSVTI

What follows are compounds tested against Polyunsaturated fatty acid lipoxygenase ALOX12 (Homo sapiens) (UniProt P18054) (assay: Primary qHTS assay for inhibitors of human arachidonate 12S-lipoxygenase (ALOX12): Round 2). Details: purified 12hLO, xylenol orange hydroperoxide absorbance; activity change, negative = inhibition: at 108 µM (top of the series) unless noted.
Method in brief: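 Hydroperoxide product was detected by ferrous iron/xylenol orange as the 573 to 405 nm absorbance ratio. Arachidonic acid at 40 uM (final) was turned over for 30 min at room temperature by 150 nM human 12hLO, pH 7.0 Hepes buffer, after 15 min compound preincubation.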
% is set by controls: 0 for no effect and ±100 for the full control effect; potency is the fitted concentration of half-maximal effect.

Q: Which “activity change, negative = inhibition” value does the source give for `CC(C)CCn1nc(C(=O)OCc2nnc(-c3ccccc3)o2)c2ccccc2c1=O` here?
A: inactive: -0.217%

Q: `CCCCN(C=O)c1c(CC)nc2c(OCc3ccc(Cl)cc3)cccn12` was tested. Which Potency did it give?
A: inconclusive: 79.4 µM [inhibitor, single point]

Q: For `O=C(NC1CCCC1)c1ccc2noc(-c3ccc(Cl)cc3)c2c1`, which “activity change, negative = inhibition” value is on record?
A: inactive: -29%

Q: Which Potency does the source give for `CC1CCC2(CC1)NC(=O)N(CC(=O)N1CCN(S(=O)(=O)c3ccc4c(c3)CCC4)CC1)C2=O` (centres undefined) here?
A: inconclusive: 0.562 µM [inhibitor, full curve, poor fit]

Q: How did the “activity change, negative = inhibition” value turn out when `COC(=O)/C(=C/c1c[nH]c2ccccc12)NC(C)=O` was run?
A: inactive: -10.1%

Q: For `Cc1ccc(C(=O)CSc2nc3ccccc3o2)c(C)c1`, which “activity change, negative = inhibition” value is on record?
A: inactive: -1.05%

Q: How did the “activity change, negative = inhibition” value turn out when `CC1(c2ccc3c(c2)OCCO3)NC(=O)N(CC(=O)c2c[nH]c3ccccc23)C1=O` (centres undefined) was run?
A: inactive: 8.07%

Q: With `COc1ccc(-c2cc(C(=O)OCC(=O)N3CCCC3)c3ccccc3n2)cc1` as the compound, how does the “activity change, negative = inhibition” value read?
A: inactive: -7.11%

Q: Which Potency does the source give for `COc1ccc2sc(/C=C/c3ccccc3O)[n+](C)c2c1` here?
A: active: 39.8 µM

Q: How did the Potency turn out when `COc1ccc(-n2c(-c3ccco3)nc3c(cnn3-c3ccccc3C)c2=O)cc1` was run?
A: inconclusive: 50.1 µM [inhibitor, partial curve, poor fit] and inconclusive: 112 µM [inhibitor, single point] and inconclusive: 100 µM [inhibitor, partial curve, poor fit]

Q: For `NC(=O)c1ccccc1NC(=O)c1cc2ccccc2oc1=O`, which Potency is on record?
A: inconclusive: 79.4 µM [inhibitor, partial curve, poor fit]

Q: How did the Potency turn out when `O=C1CC(N2CCN(c3ccc(Cl)c(Cl)c3)CC2)C(=O)N1` (centres undefined) was run?
A: inconclusive: 100 µM [inhibitor, partial curve, poor fit]

Q: For `COc1ccc(-c2ncc(CN3CCC(CO)(Cc4cccc(OC)c4)CC3)cn2)cc1`, which “activity change, negative = inhibition” value is on record?
A: inactive: 1.03%

Q: With `CN(C)c1ccc(Cc2ccc(N(C)C)cc2)cc1` as the compound, how does the “activity change, negative = inhibition” value read?
A: inactive: -29.3%

Q: How did the Potency turn out when `Oc1c(C=Nc2ccccc2)sc(=S)n1Cc1ccccc1` was run?
A: active: 8.91 µM

Q: With `CCC(=O)Nc1ccc2c(c1)ncn2-c1ccccc1OC` as the compound, how does the Potency read?
A: inconclusive: 44.7 µM [inhibitor, partial curve, poor fit]

Q: For `COC(CNC(=O)C1CCCN(S(=O)(=O)c2ccc3c(c2)oc(=O)n3C)C1)OC` (centres undefined), which Potency is on record?
A: inconclusive: 2.82 µM [inhibitor, full curve, poor fit]

Q: How did the Potency turn out when `COc1ccccc1NC(=O)c1ccc(NC(=O)COC(=O)C(C)C)cc1` was run?
A: inconclusive: 44.7 µM [inhibitor, partial curve, poor fit]

Q: For `CN(Cc1ccccc1)C(=O)CN1CCN(S(=O)(=O)c2ccc(Cl)c(Cl)c2)CC1`, which Potency is on record?
A: inconclusive: 89.1 µM [inhibitor, single point]
